Data as given in patent publication US5800983A, “Peptides for HIV-1 detection” (Abbott Laboratories, priority 1997, dated 1998).
At least one peptide structure holds a part that was inferred or is arguable (an end, a ring closure or a residue). Positions of bridges follow the written chain, without caps; N, C: chain ends. Residues, ends and D or L forms follow the SMILES beside them.

Test system: anti-HIV-1 subtype O antibodies
Assay: EIA of synthetic peptides coated on microtiter wells with HIV-1 subtype O serum/plasma samples
Format: binding, human
Details: peptide coating 20 μM; for performance in the detection of HIV-1 subtype-O samples relative to SEQUENCE I.D. NO. 1: panel of 11 subtype-O samples
[1] = Negative Control (confirmed negative human HIV samples), Tables 1 and 4
[2] = Negative Control (confirmed negative human HIV samples), Tables 2 and 5
[3] = Negative Control (confirmed negative human HIV samples), Tables 3 and 6
[4] = Sample "E", subtype O, diluted 450 fold
[5] = Sample "M", subtype O, diluted 1500 fold
[6] = Sample #193, subtype O, diluted 150 fold
[7] = Sample #267, subtype O, diluted 150 fold
[8] = Sample #341, subtype O, diluted 150 fold
[9] = Sample #655, subtype O, diluted 150 fold
[10] = Sample #2901, subtype O, diluted 450 fold
[11] = Sample DUR, subtype O, diluted 150 fold
[12] = Sample FAN, subtype O, diluted 450 fold
[13] = Sample HA112, subtype O, diluted 150 fold
[14] = Sample MAA, subtype O, diluted 750 fold

SMILES	absorbance (A490 -A630) [1]	absorbance (A490 -A630) [2]	absorbance (A490 -A630) [3]	absorbance (A490 -A630) [4]	absorbance (A490 -A630) [5]	absorbance (A490 -A630) [6]	absorbance (A490 -A630) [7]	absorbance (A490 -A630) [8]	absorbance (A490 -A630) [9]	absorbance (A490 -A630) [10]	absorbance (A490 -A630) [11]	absorbance (A490 -A630) [12]	absorbance (A490 -A630) [13]	absorbance (A490 -A630) [14]	performance in the detection of HIV-1 subtype-O samples relative to SEQUENCE I.D. NO. 1
CC[C@H](C)[C@H](NC(=O)CNC(=O)[C@H](CC(C)C)NC(=O)[C@H](CC(C)C)NC(=O)[C@H](CCC(N)=O)NC(=O)[C@H](CCC(N)=O)NC(=O)[C@H](CC(=O)O)NC(=O)[C@@H](N)CCCCN)C(=O)N[C@@H](Cc1c[nH]c2ccccc12)C(=O)NCC(=O)N[C@H]1CSSC[C@@H](C(=O)N[C@H](C(=O)N[C@H](C(=O)O)[C@@H](C)O)[C@@H](C)O)NC(=O)[C@H]([C@@H](C)CC)NC(=O)[C@H](CC(C)C)NC(=O)[C@H](CCCCN)NC(=O)CNC(=O)[C@H](CO)NC1=O [SEQ I.D. 1, reference compound] (H-KDQQLLGIWGCSGKLICTT-OH; disulfide 11-17)	0.008	0.014	0.007	0.051	2.111	1.180	0.336	0.365	0.108	0.028	0.591	0.355	0.703	0.412	
CC[C@H](C)[C@H](NC(=O)CNC(=O)[C@H](CC(C)C)NC(=O)[C@H](CC(C)C)NC(=O)[C@H](CCC(N)=O)NC(=O)[C@H](CCC(N)=O)NC(=O)[C@H](CC(=O)O)NC(=O)[C@@H](N)CCCCN)C(=O)N[C@@H](Cc1c[nH]c2ccccc12)C(=O)NCC(=O)N[C@H]1CSSC[C@@H](C(=O)N[C@@H](Cc2ccc(O)cc2)C(=O)N[C@H](C(=O)O)[C@@H](C)O)NC(=O)[C@H]([C@@H](C)CC)NC(=O)[C@H](CC(C)C)NC(=O)[C@H](CCCCN)NC(=O)CNC(=O)[C@H](CO)NC1=O [SEQ I.D. 3] (H-KDQQLLGIWGCSGKLICYT-OH; disulfide 11-17)	0.009	0.010	0.005	1.085	≥ 2.5	≥ 2.5	0.260	1.384	0.129	0.049	0.442	0.575	2.274	1.739	in general superior in performance to SEQUENCE I.D. NO. 1
CC[C@H](C)[C@H](NC(=O)CNC(=O)[C@H](CC(C)C)NC(=O)[C@H](CC(C)C)NC(=O)[C@H](CCC(N)=O)NC(=O)[C@H](CCC(N)=O)NC(=O)[C@H](CC(=O)O)NC(=O)[C@@H](N)CCCCN)C(=O)N[C@@H](Cc1c[nH]c2ccccc12)C(=O)NCC(=O)N[C@H]1CSSC[C@@H](C(=O)N[C@@H](Cc2ccc(O)cc2)C(=O)N[C@H](C(=O)O)[C@@H](C)O)NC(=O)[C@H]([C@@H](C)CC)NC(=O)[C@H](CC(C)C)NC(=O)[C@H](CCCCN)NC(=O)CNC(=O)[C@H](CCCCN)NC1=O [SEQ I.D. 4] (H-KDQQLLGIWGCKGKLICYT-OH; disulfide 11-17)	0.014	0.015	0.005	≥ 2.5	≥ 2.5	≥ 2.5	1.059	≥ 2.5	0.289	1.276	0.358	0.624	≥ 2.5	2.247	markedly superior in performance to SEQUENCE I.D. NO. 1 in the detection of 10 out of a total of 11 subtype-O samples
CC[C@H](C)[C@H](NC(=O)CNC(=O)[C@H](CC(C)C)NC(=O)[C@H](CC(C)C)NC(=O)[C@H](CCC(N)=O)NC(=O)[C@H](CCC(N)=O)NC(=O)[C@H](CC(=O)O)NC(=O)[C@@H](N)CCCCN)C(=O)N[C@@H](Cc1c[nH]c2ccccc12)C(=O)NCC(=O)N[C@H]1CSSC[C@@H](C(=O)N[C@H](C(=O)N[C@H](C(=O)O)[C@@H](C)O)[C@@H](C)O)NC(=O)[C@H]([C@@H](C)CC)NC(=O)[C@H](CC(C)C)NC(=O)[C@H](CCCCN)NC(=O)CNC(=O)[C@H](CCCCN)NC1=O [SEQ I.D. 2] (H-KDQQLLGIWGCKGKLICTT-OH; disulfide 11-17)	0.010	0.008	0.006	0.144	≥ 2.5	1.116	0.691	1.635	0.223	1.511	1.202	1.316	1.286	2.440	in general superior in performance to SEQUENCE I.D. NO. 1
